# Laboratory results from PubChem BioAssay AID504444 (National Center for Advancing Translational Sciences (NCATS), 2011).
# Hit rate of the full screen: of about 360,000 compounds, about 7,500 (2.1%) were called active. The inconclusive results got no clear call from the source; some entries with a clear call stand among them for comparison. The call rests on the fitted dose curve; in most records, active means well fitted inhibition curve with a large enough effect; inconclusive means small, poorly fitted or top-dose-only effect, or effect the other way; inactive means flat fitted curve, though single readings scatter. Where the call is inconclusive, the potency comes from a doubtful curve fit.
# Experiment: Nrf2 qHTS screen for inhibitors; further: nearly all actives have a fitted effect of over 60% in size
# Details: A549 ARE-Fluc reporter, luciferase luminescence, 18-24 h; activity change, negative = inhibition: at 46 µM (top of the series)
# Outline: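 Quantitative HTS in A549 cells stably bearing an antioxidant response element-firefly luciferase construct. Inhibition of Nrf2-driven transcription was scored by luminescence after 18-24 h of compound exposure at 37 °C.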
# On the % scale 0 is the no-effect control and ±100 the full control effect; potency means the concentration at half of the fitted maximal effect.
Structure (SMILES),Potency,"activity change, negative = inhibition"
COc1ccc(N2CCN(S(=O)(=O)c3ccc4c(c3)CC(C)N4C(C)=O)CC2)cc1 (stereo unspecified),active: 9.2 µM,
COc1cccc(C2NC(=O)c3ccccc3O2)c1OCc1ccccc1F (stereo unspecified),,inactive: -6.14%
O=C(CN1CCN(c2cccc(Cl)c2)CC1)NCc1ccccc1,"inconclusive: 29.1 µM [falling, single point]",
CCOc1ccccc1NC(=O)c1cc2c(Cl)nc3ccccc3c2s1,,inactive: 0.506%
COc1ccc(NS(=O)(=O)c2cccs2)cc1S(=O)(=O)N1CCOCC1,"inconclusive: 6.51 µM [activator, single point]",
CSCc1cc(N2CCOCC2)nc(SCc2ccc(Cl)cc2Cl)n1,"inconclusive: 8.2 µM [falling, partial curve, poor fit]",
Cc1cccc(OCC(=O)O/N=C(\N)c2ccccn2)c1,"inconclusive: 3.66 µM [activator, full curve]",
Cc1ccn2c(C(=O)CSc3ccc(Cl)cc3)c(C)nc2c1,"inconclusive: 11.6 µM [falling, partial curve, poor fit]",
COc1cccc(C(=O)Nc2cccc(NC(=O)c3ccccc3Cl)c2)c1,"inconclusive: 4.11 µM [activator, single point]",
COC(=O)c1ccc(COc2ccc3c(c2)CCC3)o1,"inconclusive: 4.11 µM [activator, partial curve]",
Cc1c2cc[n+](CCN3CCCCC3)cc2c(C)c2c1[nH]c1ccc(O)cc12,"inconclusive: 0.731 µM [falling, full curve, poor fit]",
CC(Nc1ncnc2ccccc12)c1ccccc1 (stereo unspecified),"inconclusive: 5.8 µM [falling, partial curve, poor fit]",
CCn1c2ccccc2c2nnc(N3CCN(c4cc(C)ccc4C)CC3)nc21,active: 20.6 µM,
CCc1nn(CCCC(=O)Nc2ccc(C)cc2C)c(=O)c2cc3occc3n12,"inconclusive: 32.6 µM [falling, single point]",
COc1ccc(NC(=O)CN(Cc2ccccc2)S(=O)(=O)c2ccc(C)cc2)cc1Cl,"inconclusive: 29.1 µM [falling, single point]",
CCC(=O)Nc1ccc2oc(-c3cccc(C)c3)nc2c1,"inconclusive: 0.366 µM [activator, partial curve]",
CC1CC(C)CN(S(=O)(=O)c2ccc(C(=O)Nc3nnc(-c4cccs4)o3)cc2)C1 (stereo unspecified),active: 5.01 µM,
CCCCCn1c(Sc2nc3ccccc3s2)nc2c1c(=O)[nH]c(=O)n2C,active: 16.4 µM,
CNC(=S)NNC(=O)c1c(C)nc2cc(C)ccn12,"inconclusive: 29.1 µM [falling, single point]",
Cc1ccc(NC(=O)c2cccc(NC(=O)/C=C/c3ccco3)c2)cc1C,,inactive: 5.08%
CC1=C(C(=O)OC2CCCCCC2)C(c2c(F)cccc2Cl)CC(=O)N1 (stereo unspecified),"inconclusive: 10.3 µM [falling, partial curve, poor fit]",

Structure (SMILES),Potency,"activity change, negative = inhibition"
O=C1CC(c2cccc([N+](=O)[O-])c2)c2c(ccc3ccccc23)N1 (stereo unspecified),"inconclusive: 29.1 µM [falling, single point]",
O=C(c1cc(-c2cccc(Cl)c2)on1)N1CCCC1,"inconclusive: 13 µM [activator, partial curve]",
CCOC(=O)c1[nH]cnc1N=Nc1c(O)ccc2ccccc12,"inconclusive: 14.6 µM [falling, partial curve]",
COc1ccc(N(Cc2cccs2)C(=O)COc2cccc(Cl)c2)cc1,"inconclusive: 29.1 µM [falling, single point]",
C=CCNc1nc(N2CCCCC2)c(C#N)c2c1CN(Cc1ccccc1)CC2,,inactive: -2.25%
O=C(Nc1ccc2c(c1)OCCO2)c1ccco1,"inconclusive: 0.259 µM [activator, full curve, poor fit]",
CNS(=O)(=O)c1c(C)cc(C)c(N(C)S(=O)(=O)c2ccccc2)c1C,"inconclusive: 23.1 µM [activator, single point]",
CCOC(=O)c1c(Nc2ccc(C)cc2)nnc(-c2ccccc2)c1-c1ccccc1,active: 18.4 µM,
CN(C)c1ccc(O)c2c1CC1CC3C(N(C)C)C(=O)C(C(N)=O)=C(O)[C@@]3(O)C(=O)C1=C2O (stereo partly specified),"inconclusive: 23.1 µM [falling, single point]",
CCOC(=O)c1cccc(NC(=O)c2oc3c(c2C)-c2[nH]ncc2CC3)c1,"inconclusive: 13 µM [falling, partial curve, poor fit]",
CCC(C(=O)Nc1ccc(C(=O)OC)cc1)n1c(=O)c(-c2ccccc2NC(C)=O)nc2ccccc21 (stereo unspecified),,inactive: 14.1%
Nc1ccn([C@@H]2O[C@H](CO)[C@@H](O)C2O)c(=O)n1 (stereo partly specified),"inconclusive: 0.116 µM [falling, full curve]",
COc1ccc(NC(=O)CC2C(=O)N(c3ccc(F)cc3)C(=O)N2Cc2cccnc2)cc1 (stereo unspecified),"inconclusive: 29.1 µM [activator, single point]",
O=C(CC1N=C2c3ccccc3N=C(SCc3ccc(Cl)cc3)N2C1=O)NCc1ccco1 (stereo unspecified),"inconclusive: 32.6 µM [falling, single point]",
CCOc1cccc2cc(-c3nc(-c4ccccc4C)no3)c(=O)oc12,"inconclusive: 29.1 µM [activator, single point]",
CCC(=O)N1CCc2cc(S(=O)(=O)NCCC(=O)N3CCN(c4cccc(OC)c4)CC3)ccc21,"inconclusive: 16.4 µM [falling, partial curve, poor fit]",
COc1ccc(COc2ccccc2C(=O)NCc2ccccc2)cc1F,"inconclusive: 16.4 µM [falling, partial curve, poor fit]",
O=C(Nc1ccc(Cl)cc1)C1CCCN(S(=O)(=O)c2ccc3[nH]c(=O)ccc3c2)C1 (stereo unspecified),"inconclusive: 29.1 µM [activator, single point]",
Cc1cc(F)ccc1NC(=O)CCS(=O)(=O)c1ccc2c(c1)NC(=O)CO2,"inconclusive: 29.1 µM [activator, single point]",
O=C(CCN1CCN(C(c2ccccc2)c2ccccc2)CC1)N/N=C/c1ccc(O)cc1O,"inconclusive: 23.1 µM [falling, single point]",

# Reformatted as tab-separated lines: 2 of the compounds above
Structure (SMILES)	Potency	activity change, negative = inhibition
O=C(c1cc(-c2cccc(Cl)c2)on1)N1CCCC1	inconclusive: 13 µM [activator, partial curve]	
CN(C)c1ccc(O)c2c1CC1CC3C(N(C)C)C(=O)C(C(N)=O)=C(O)[C@@]3(O)C(=O)C1=C2O (stereo partly specified)	inconclusive: 23.1 µM [falling, single point]	
